Data taken from US20230365570A1, “COMPOUNDS WITH GLUCOCORTICOID SPARING EFFECTS AND USES THEREOF” (The Regents of the University of California, priority 2020, published 2023).
At least one structure is not confirmed: it was looked up by name or label, or the drawing left a doubt.

Tested on: NF-κB
Assay: NF-κB activation assay in LPS stimulated CellSensor NF-κB-bla THP-1 reporter cells
Assay type: cell-based, human
Details: 5 h and 16 h time points

## C[C@@H]1C[C@H]2[C@@H]3CCC4=CC(=O)C=C[C@]4(C)[C@@]3(F)[C@@H](O)C[C@]2(C)[C@@]1(O)C(=O)CO [DEX, dexamethasone, reference compound]
  Inhibition of NF-κB activity: inhibited NF-κB activity more potently at 16 h than 5 h
